1 molecule from patent publication US20060240474A1, “Peptides able to switch between two structural states and their use” (UNIVERSITY OF SUSSEX, priority 2002, published 2006) can be followed below.

Results are given in words; binding and its absence hold for the method and conditions named.

In this assay the target is CSP-2r (reduced and alkylated). The assay can be described thus: sedimentation equilibrium (AUC), 5 C, self-association.

B1: CSP-2r (reduced and alkylated) (peptide)
peptide: CGGEIRALKYEIARLKQGGGGKKRALEQKIAALEGGC
modifications: terminal Cys residues reduced and alkylated (iodoacetamide)
Consider B1, for which the binding result is given as “no binding”.
